At least one structure is not confirmed: it was looked up by name or label, or the drawing left a doubt.
System: Z24−/− mice
Assay: Senolytic treatment of progeroid Z24−/− mice, articular cartilage degeneration / OA
Type: in vivo
Conditions: progeroid mice accelerated aging model
Excerpt: The Zmpste24−/− (Z24−/−) model of Hutchinson-Gilford Progeria Syndrome (HGPS) was used to model not only HGPS musculoskeletal decline, but also as a pre-clinical aging model due to its predictable and accelerated aging phenotypes. Z24−/− animals are short lived (˜6 months) and have severe musculoskeletal abnormalities including weight loss, dystonia, sarcopenia, osteoporosis and as reported herein, early signs of bone loss and spontaneous osteoarthritis (OA).
As a proof of concept for the potential of senolytics to reduce AC degeneration, a pilot study was conducted with Dasatinib+Quercitin (D/Q; 5 mg/kg; 50 mg/kg). Z24−/− mice were administered D/Q via oral gavage as a single dose (D/Qsin) at 4 months of age, or monthly dose starting at 2 months of age (D/Qmul) prior to sacrifice at 5 months.

Q: How did the “incidence/severity of age-related disorders including osteoarthritis (OA)” value turn out when `Cc1nc(Nc2ncc(C(=O)Nc3c(C)cccc3Cl)s2)cc(N2CCN(CCO)CC2)n1` [Dasatinib] was run?
A: can reduce

From patent US20230263774A1, “OPTIMIZED SURGERY PROTOCOL AND KITS” (Steadman Philippon Research Institute, priority 2020, published 2023)
